Results as given in paper PMC9164399.
Results are given in words; binding and its absence hold for the method and conditions named. In cells and extracts the contact can be indirect. Some results given as binding are weak or reduced against the parent protein; the word gives no strength. For part of these data: Tags and fused reporters may be left off the sequences shown.

Chains of the proteins cited; added tags and fusions are not shown.
UniProt O14744: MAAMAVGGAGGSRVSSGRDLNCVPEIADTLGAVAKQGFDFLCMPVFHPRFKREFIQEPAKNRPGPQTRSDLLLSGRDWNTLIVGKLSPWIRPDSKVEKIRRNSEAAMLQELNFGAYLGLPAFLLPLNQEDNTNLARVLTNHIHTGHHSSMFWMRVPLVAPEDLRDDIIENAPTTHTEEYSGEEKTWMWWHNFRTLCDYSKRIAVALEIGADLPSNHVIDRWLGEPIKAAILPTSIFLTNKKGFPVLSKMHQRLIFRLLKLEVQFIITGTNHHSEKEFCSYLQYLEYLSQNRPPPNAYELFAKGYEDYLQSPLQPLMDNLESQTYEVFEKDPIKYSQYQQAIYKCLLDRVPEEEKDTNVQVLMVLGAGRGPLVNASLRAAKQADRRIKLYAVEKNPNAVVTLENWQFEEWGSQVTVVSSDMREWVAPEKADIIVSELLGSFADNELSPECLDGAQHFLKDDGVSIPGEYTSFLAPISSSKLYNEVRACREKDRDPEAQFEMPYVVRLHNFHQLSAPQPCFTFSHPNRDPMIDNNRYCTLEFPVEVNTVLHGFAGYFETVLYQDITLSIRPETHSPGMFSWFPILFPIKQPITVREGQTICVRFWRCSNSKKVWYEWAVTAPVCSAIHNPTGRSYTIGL

Columns and labels:
Flag-Slug (human) [1] = target: T1, Flag-Slug (human) (UniProt O43623); assay: co-IP; Flag peptide eluates of the anti-Flag affinity gel (HEK293T cells expressing Flag-Slug) analysed by western blotting with LSD1 and PRMT5 antibodies
T1 sequence: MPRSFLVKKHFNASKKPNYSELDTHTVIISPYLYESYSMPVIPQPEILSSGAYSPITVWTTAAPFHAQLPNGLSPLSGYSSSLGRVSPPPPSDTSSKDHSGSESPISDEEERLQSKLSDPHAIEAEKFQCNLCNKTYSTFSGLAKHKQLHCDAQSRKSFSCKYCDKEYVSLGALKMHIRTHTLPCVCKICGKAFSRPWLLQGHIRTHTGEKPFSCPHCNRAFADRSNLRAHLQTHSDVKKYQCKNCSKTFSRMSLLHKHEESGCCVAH

[2] = target: T2, Slug (endogenous) (human (endogenous in MDA-MB-231, SUM159 and Hs578T)) (UniProt O43623); assay: co-IP; endogenous proteins; lysates of MDA-MB-231, SUM159 or Hs578T cells immunoprecipitated with antibodies against Slug, LSD1 or PRMT5, Protein G magnetic beads, 4 °C, lysis buffer 50 mM Tris-HCl pH 8.0, 0.2% NP-40, 150 mM NaCl, 2 mM EDTA; immunoblot
T2 sequence: T1 sequence

Flag-Slug (human) [3] = target: T1, Flag-Slug (human); assay: co-IP; one Flag-tagged and two HA-tagged proteins of Slug, PRMT5 and LSD1 co-expressed in HEK293T cells; immunoprecipitation with appropriate antibodies, western blot

| binding (Flag-Slug (human) [1]) | binding [2] | binding (Flag-Slug (human) [3]) | Substance |
| --- | --- | --- | --- |
| binds | binds | – | Protein arginine methyltransferase 5 (endogenous) (from UniProt O14744 1-637) (enzyme) |
| – | – | binds | HA-PRMT5 (from UniProt O14744 1-637) (enzyme) |
